The list shows a part of the results, in another mix than the full data. At the low end of the ranking the order means little.

The target of this assay is SPI1 (UniProt P17947). The assay is described as follows: DAPPL (digital affinity profiling via proximity ligation, sequencing). As to conditions: 10 mM Tris-HCl pH 7.5, 50 mM NaCl, 1 mM DTT, 4% glycerol, room temperature, 30 min; GST-TFs on glutathione beads, 16-mer random dsDNA library, 0.1% …; high values mean tight binding; double strand, one strand shown; scale: fold enrichment (6-mer frequency, TF over GST control).
As to CATCGT, the binding signal was 0.892.
The result for TACGGT reads 0.993; that for TCAGAC, 0.894; that for CGCCCA, 0.916.
With GCGGCA the figure was 0.804; with TGTTGG, 0.982; with AGCTGT, 0.965.
Sequence CTGTCC yielded a binding signal of 1.25.
With AAGGTC the figure was 0.864; with GATTAG, 0.824.
The sequence GCCTGC displayed a binding signal of 1.06.
With GGCTTT, the binding signal worked out at 0.859.
Regarding CCGTCT, the binding signal stood at 1.43.
With GATCCC the figure was 1.11; with GCATCT, 0.957; with GTATTG, 0.92.
With CTTAAC the figure was 1.32; with GTATGA, 0.949; with TCGTCT, 1.26.
With AATACG the figure was 1.32.
On to TGCGTC, for which the binding signal is 0.978.
The result for GGATCA reads 0.838; that for ACGTCA, 0.971; that for GAGCTT, 0.972.
The result for TTCTGA reads 1.21.
With ATAAGT the figure was 1.
Consider TCATAA, for which the binding signal was determined as 1.06.
As for AAGGGA, the binding signal is 1.07.
The result for GATAAA reads 0.999.
The result for AGGGAT reads 0.696.
Sequence TCTCAT displayed a binding signal of 1.37.
The result for CGGATT reads 0.98.
The result for GCCGAA reads 0.98; that for ATTCTC, 1.27.
As for TTCCAA, the binding signal stood at 1.11.
With CCAGAA the figure was 0.958; with GGATGT, 1.53; with GACGTT, 0.968.

Values taken from PMC7862700.
